Source: patent US20050164379A1
No constants are given. Whether binding was seen depends on the method and setting. In cells and extracts the contact can be indirect. Some results given as binding are weak or reduced against the parent protein; the word gives no strength.

Chains of the proteins cited; added tags and fusions are not shown. Lines headed by an entry give the natural chain unless they say otherwise; changes in a name come on top.
UniProt Q12809: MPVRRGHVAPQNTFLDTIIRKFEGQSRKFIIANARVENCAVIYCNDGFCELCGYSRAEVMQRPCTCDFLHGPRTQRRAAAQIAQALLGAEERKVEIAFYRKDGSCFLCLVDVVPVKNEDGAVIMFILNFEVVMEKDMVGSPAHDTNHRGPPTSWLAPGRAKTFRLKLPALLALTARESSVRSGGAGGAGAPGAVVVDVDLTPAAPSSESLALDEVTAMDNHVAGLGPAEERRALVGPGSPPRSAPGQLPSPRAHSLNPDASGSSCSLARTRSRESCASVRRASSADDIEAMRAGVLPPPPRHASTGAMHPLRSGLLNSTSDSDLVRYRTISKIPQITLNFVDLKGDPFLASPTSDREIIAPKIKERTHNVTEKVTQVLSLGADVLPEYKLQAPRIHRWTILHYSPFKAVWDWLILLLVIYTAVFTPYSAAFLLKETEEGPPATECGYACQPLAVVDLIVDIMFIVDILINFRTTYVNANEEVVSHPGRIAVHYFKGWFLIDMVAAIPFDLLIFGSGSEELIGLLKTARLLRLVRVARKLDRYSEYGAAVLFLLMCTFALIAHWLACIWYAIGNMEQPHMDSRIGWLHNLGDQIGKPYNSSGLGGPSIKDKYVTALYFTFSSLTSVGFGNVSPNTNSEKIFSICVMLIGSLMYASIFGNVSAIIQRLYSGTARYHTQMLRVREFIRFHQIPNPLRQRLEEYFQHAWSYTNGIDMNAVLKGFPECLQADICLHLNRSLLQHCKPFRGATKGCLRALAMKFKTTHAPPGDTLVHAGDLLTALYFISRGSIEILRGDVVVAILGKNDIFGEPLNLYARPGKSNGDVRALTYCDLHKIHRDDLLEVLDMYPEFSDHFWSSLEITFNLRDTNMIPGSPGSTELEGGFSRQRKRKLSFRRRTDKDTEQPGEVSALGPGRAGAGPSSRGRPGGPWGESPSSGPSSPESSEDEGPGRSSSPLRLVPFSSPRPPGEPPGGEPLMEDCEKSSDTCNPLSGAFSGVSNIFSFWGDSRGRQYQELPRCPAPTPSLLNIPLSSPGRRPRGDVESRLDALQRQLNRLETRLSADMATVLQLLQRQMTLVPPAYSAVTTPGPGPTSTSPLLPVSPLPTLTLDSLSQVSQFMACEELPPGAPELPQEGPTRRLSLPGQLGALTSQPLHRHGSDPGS

Key:
[1] = target: HERG1b subunit (human ERG1b) (human) (UniProt Q12809); assay: co-immunoprecipitation
[2] = target: HERG1b subunit (human ERG1b) (human) (UniProt Q12809); assay: co-immunoprecipitation from a human myocyte preparation
[3] = target: HERG1b subunit (human ERG1b) (human) (UniProt Q12809); assay: co-immunoprecipitation from stably transfected HEK-293 cells

Measured: binding

HERG1a subunit (human ERG1a) (from UniProt Q12809 1-1159)
binds: all assays above
